Results deposited as PubChem BioAssay AID1259405 (NCATS, 2018).
Shown is an unselected part of about 50,000 reagents tested. Of all reagents, about 4,000 (8%) were called active. 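Mouse siRNA library applied to hamster cells; one well for each siRNA.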 Unmarked entries are inactive. Reagents against one gene are numbered here.

Aim: 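Knock-downs that lift recombinant protein yield in hamster ovary cells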 (primary screen)
Cell system: Chinese hamster CHO-K1 ovary cells with stable secreted eGFP expression
Reagents: single siRNA against mouse genes, 0.8 pmol siRNA per well (2 µl of 400 nM stock)
Timing: 3 days
Measured: 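Percent of the per-plate non-targeting control median for intracellular GFP per well by laser scanning cytometry and for cell viability by ATP luminescence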
Scale: GFP, % of control: higher = more GFP per well, higher productivity; viability (ATP), % of control: higher = more viable cells (more ATP)
Rule for the call: 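Called active when intracellular GFP, relative to negative control, is at or above 120%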

With Src (src proto-oncogene, non-receptor tyrosine kinase), what does the deposit list?
GFP, % of control: 64.4; viability (ATP), % of control: 51.9

Which result is listed for Selenoi (selenoprotein I) #1?
GFP, % of control: 50.2; viability (ATP), % of control: 26.5

For Selenoi (selenoprotein I) #2, how do the results read?
GFP, % of control: 77.3; viability (ATP), % of control: 85.3

What did the screen give for Selenoi (selenoprotein I) #3?
GFP, % of control: 63.4; viability (ATP), % of control: 44.2

For Dpysl3 (dihydropyrimidinase-like 3) #1, how do the results read?
GFP, % of control: 98.6; viability (ATP), % of control: 98.5

With Dpysl3 (dihydropyrimidinase-like 3) #2, how do the results read?
GFP, % of control: 88.3; viability (ATP), % of control: 99.5

What did the screen give for Dpysl3 (dihydropyrimidinase-like 3) #3?
GFP, % of control: 68.8; viability (ATP), % of control: 134

For Atp5f1e (ATP synthase F1 subunit epsilon) #1, what does the deposit list?
GFP, % of control: 98.8; viability (ATP), % of control: 83.7

For Atp5f1e (ATP synthase F1 subunit epsilon) #2, how do the results read?
GFP, % of control: 103; viability (ATP), % of control: 88.9

How did the screen score Atp5f1e (ATP synthase F1 subunit epsilon) #3?
GFP, % of control: 88.9; viability (ATP), % of control: 86.3

For Mvd (mevalonate (diphospho) decarboxylase) #1, how do the results read?
GFP, % of control: 55.2; viability (ATP), % of control: 74.4

How did the screen score Mvd (mevalonate (diphospho) decarboxylase) #2?
GFP, % of control: 76.3; viability (ATP), % of control: 86.3

With Mvd (mevalonate (diphospho) decarboxylase) #3, how do the results read?
GFP, % of control: 34.5; viability (ATP), % of control: 66.1

With Mcts1 (malignant T cell amplified sequence 1) #1, what was measured?
GFP, % of control: 90.3; viability (ATP), % of control: 112

How did the screen score Mcts1 (malignant T cell amplified sequence 1) #2?
GFP, % of control: 73.6; viability (ATP), % of control: 94.6

With Mcts1 (malignant T cell amplified sequence 1) #3, what does the deposit list?
GFP, % of control: 53.1; viability (ATP), % of control: 33.1

Which result is listed for Ankhd1 (ankyrin repeat and KH domain containing 1) #1?
GFP, % of control: 96.5; viability (ATP), % of control: 76.2

What is on record for Ankhd1 (ankyrin repeat and KH domain containing 1) #2?
GFP, % of control: 79.8; viability (ATP), % of control: 92.6

For Ankhd1 (ankyrin repeat and KH domain containing 1) #3, how do the results read?
GFP, % of control: 119; viability (ATP), % of control: 106

Which result is listed for Ss18l2 (SS18, nBAF chromatin remodeling complex subunit like 2) #1?
GFP, % of control: 100; viability (ATP), % of control: 91.2

Which result is listed for Ss18l2 (SS18, nBAF chromatin remodeling complex subunit like 2) #2?
GFP, % of control: 79.4; viability (ATP), % of control: 73.1

What is on record for Ss18l2 (SS18, nBAF chromatin remodeling complex subunit like 2) #3?
GFP, % of control: 73.1; viability (ATP), % of control: 49.3

For Fmc1 (formation of mitochondrial complex V assembly factor 1) #1, how do the results read?
GFP, % of control: 82.4; viability (ATP), % of control: 71.5

With Fmc1 (formation of mitochondrial complex V assembly factor 1) #2, what was measured?
GFP, % of control: 105; viability (ATP), % of control: 103

What did the screen give for Fmc1 (formation of mitochondrial complex V assembly factor 1) #3?
GFP, % of control: 114; viability (ATP), % of control: 111

For Phc1 (polyhomeotic 1) #1, what was measured?
GFP, % of control: 74.3; viability (ATP), % of control: 77.9

What did the screen give for Phc1 (polyhomeotic 1) #2?
GFP, % of control: 78.8; viability (ATP), % of control: 103

Individual results from above:
Under “GFP, % of control”, Mcts1 (malignant T cell amplified sequence 1) #3 reads 53.1
Result of Atp5f1e (ATP synthase F1 subunit epsilon) #3 under “viability (ATP), % of control”: 86.3
Result of Ankhd1 (ankyrin repeat and KH domain containing 1) #3 in “GFP, % of control”: 119
